Experimental findings from paper doi:10.1101/2025.08.04.668388 are described below.

The target of this experiment is m54.5p-V5 (C-terminally V5-tagged MCMV m54.5 ORF product) (murine cytomegalovirus (MCMV, Smith, pSM3fr)). In words: co-IP.

These are yes or no findings as the source states them, for the method shown. Binding seen in cells or lysates may run through a third protein. Binding can be weak; no strength is given.

B1: PP6C (protein, UniProt Q9CQR6 1-305)
chain: MAPLDLDKYVEIARQCKYLPENDLKRLCDYVCDLLLEESNVQPVSTPVTVCGDIHGQFYDLCELFRTGGQVPDTNYIFMGDFVDRGYYSLETFTYLLALKAKWPDRITLLRGNHESRQITQVYGFYDECQTKYGNANAWRYCTKVFDMLTVAALIDEQILCVHGGLSPDIKTLDQIRTIERNQEIPHKGAFCDLVWSDPEDVDTWAISPRGAGWLFGAKVTNEFVHINNLKLICRAHQLVHEGYKFMFDEKLVTVWSAPNYCYRCGNIASIMVFKDVNTREPKLFRAVPDSERVIPPRTTTPYFL
Take B1: the binding result is “binds”.

B2: PP6R3 (protein, UniProt Q922D4 1-844)
chain: MFWKFDLHSSSHIDTLLEREDVTLKELMDEEDVLQECKAQNRKLIEFLLKAECLEDLVSFIIEEPPQDMDEKIRYKYPNISCELLTSDVSQMNDRLGEDESLLMKLYSFLLNESPLNPLLASFFSKVLSILISRKPEQIVDFLKKKRDFVDLIIKHIGTSAIMDLLLRLLTCIEPPQPRQDVLNWLNEERIIQRLVEIVHPSQEEDRHSNASQSLCEIVRLSRDQMLQVQNSTEPDPLLATLEKQEIIEQLLSNIFHKEKNESAIVSAIQILLTLLETRRPTFEGHIEICPPGMSHSACSVNKSVLEAIRGRLGSFHELLLEPPKKSVMKTTWGILDPPVGNTRLNVIRLISSLLQTNTSSINGDLMELNSIGVILDMFFKYTWNNFLHTQVEICIALILASPFENAENGTITDQDSTGDNLLLKHLFQKCQLIERILEAWDTNEKKQAEGGRRHGYMGHLTRIANCIVHSTDKGPNSALVQQLIKDLPDEVRERWETFCTNSLGETNKRNTVDLAFSDYQMQQMTSNFIDQFGFNDEKFADQDDIGNVSFDRVSDINFTLNTNESGNIALFEACCKERIQQFDDGGSDEEDIWEEKHIAFTPESQRRSSSGSTDSEESTDSEEEDGAKQDLFESSSANTEDKMEVDLNEPPTWSANFDVPMETTHGAPLDSVGSDVWSTEEPMPTKETGWASFSEFTSSLSTKESLRSNSPVEMETSTESVDPLTPGAAALATQPEAPGSMAMEASSDGEEDAESTDKVTETVMNGGMKETLSLTVDAKTETAVFKSEEEKLSTSQDAACKDAEETPEPAEAKCTAPLTPSSSPEQRTDQPSMPSDPSVNGPV
B2: the binding entry was “binds”.
